Results deposited as PubChem BioAssay AID504774 (Drosophila RNAi Screening Center, 2011)

Aim: 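Genes required for cells to withstand methyl methanesulphonate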 (primary screen)
Cell system: Drosophila Kc167 cells
Knock-down reagent: long dsRNA against Drosophila genes, about 0.25 µg dsRNA per well
Timing: about 6 days: 3 days knock-down, then 3 days with or without MMS
Conditions: methyl methanesulphonate 0.004% (w/v) for 3 days after knock-down
Measured: 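Viability in wells given MMS, read as ATP luminescence, normalised by quantiles plate by plate and averaged across replicates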
Direction: mean viability with MMS and viability with MMS: higher = more surviving cells after MMS
The screen tested about 23,000 reagents; below is a random part of those with a known target gene and a result. 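Values are quantile-normalised luminescence on an arbitrary scale; higher means more cells surviving MMS.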 The numbers tell different reagents against one gene apart. Not all columns of the deposit are shown. No sequences are given here.

Which result is listed for CG6983?
mean viability with MMS: 3.77e6; viability with MMS, replicate 1: 4.28e6

How did the screen score parvin?
mean viability with MMS: 3.62e6; viability with MMS, replicate 1: 4.21e6

For Nepl15, how do the results read?
mean viability with MMS: 3.38e6; viability with MMS, replicate 1: 3.81e6

What is on record for EloC?
mean viability with MMS: 3.56e6; viability with MMS, replicate 1: 4.11e6

What is on record for Cbp20?
mean viability with MMS: 3.32e6; viability with MMS, replicate 1: 3.84e6

For CG13131 #1, what was measured?
mean viability with MMS: 3.42e6; viability with MMS, replicate 1: 3.84e6

How did the screen score CG13131 #2?
mean viability with MMS: 3.04e6; viability with MMS, replicate 1: 3.19e6

With CG5756, what was measured?
mean viability with MMS: 3.63e6; viability with MMS, replicate 1: 4.06e6

With shep #1, what does the deposit list?
mean viability with MMS: 3.00e6; viability with MMS, replicate 1: 3.57e6

What is on record for shep #2?
mean viability with MMS: 3.50e6; viability with MMS, replicate 1: 4.04e6

Which result is listed for shep #3?
mean viability with MMS: 3.32e6; viability with MMS, replicate 1: 3.79e6

With CG4630, what was measured?
mean viability with MMS: 3.62e6; viability with MMS, replicate 1: 4.13e6

What did the screen give for RhoGAP16F?
mean viability with MMS: 3.83e6; viability with MMS, replicate 1: 4.46e6

Which result is listed for fax?
mean viability with MMS: 3.42e6; viability with MMS, replicate 1: 3.89e6
